The record followed here is patent publication US20110038885A1 (priority 2007, published 2011).

This series is described as follows: general procedure: Fmoc solid-phase peptide synthesis; Rink Amide MBHA resin (0.58 mmol/g or 0.78 mmol/g); Wang resin for C-terminal acids; DIC/HOBt. As to conditions: whole synthesis; for purity (crude or final not stated): scale of the general procedure 0.090 mmol.

Numbered stars: 1 amine (or outer) side, 2 acyl side, 3 side chain; on linkers, the order of the positions; unused ones are H or OH. Bridge positions count the residues as written; N and C are the ends. Square brackets hold non-standard residues; d marks the D form. * marks the point of attachment. Glutaryl = O=C(CCCC(=O)[*:2])[*:1]; 1Naphthoyl = O=C(c1cccc2ccccc12)*; Ac6c = NC1(C(=O)O)CCCCC1; Isobutyryl = CC(C)C(=O)*; Dab = NCC[C@H](N)C(=O)O; Dap = NC[C@H](N)C(=O)O; Butyryl = CCCC(=O)*

Turning to “1Naphthoyl-CKWIQC-NH2 (disulfide 1-6; SMILES CC[C@H](C)[C@@H]1NC(=O)[C@H](Cc2c[nH]c3ccccc23)NC(=O)[C@H](CCCCN)NC(=O)[C@@H](NC(=O)c2cccc3ccccc23)CSSC[C@@H](C(N)=O)NC(=O)[C@H](CCC(N)=O)NC1=O)”, the “purity (crude or final not stated)” value (analytical HPLC) was determined as 99%.

Turning to “Isobutyryl-EKWIQK-NH2 (lactam 1-6; SMILES CC[C@H](C)[C@@H]1NC(=O)[C@H](Cc2c[nH]c3ccccc23)NC(=O)[C@H](CCCCN)NC(=O)[C@@H](NC(=O)C(C)C)CCC(=O)NCCCC[C@@H](C(N)=O)NC(=O)[C@H](CCC(N)=O)NC1=O)”, under “analytical HPLC”, the “purity (crude or final not stated)” value came to 83.9%.

Take “Isobutyryl-DKWIQ[Dap]-NH2 (lactam 1-6; SMILES CC[C@H](C)[C@@H]1NC(=O)[C@H](Cc2c[nH]c3ccccc23)NC(=O)[C@H](CCCCN)NC(=O)[C@@H](NC(=O)C(C)C)CC(=O)NC[C@@H](C(N)=O)NC(=O)[C@H](CCC(N)=O)NC1=O)”: for the setting “analytical HPLC, scale 0.09 mmol”, the “final HPLC purity” value turned out to be 89%. In addition, under “scale 0.09 mmol”, the crude mass result is “˜65 mg” and the isolated mass is 4 mg.

“Ac-QCKWIQC-NH2 (disulfide 2-7; SMILES CC[C@H](C)[C@@H]1NC(=O)[C@H](Cc2c[nH]c3ccccc23)NC(=O)[C@H](CCCCN)NC(=O)[C@@H](NC(=O)[C@H](CCC(N)=O)NC(C)=O)CSSC[C@@H](C(N)=O)NC(=O)[C@H](CCC(N)=O)NC1=O)”: under “analytical HPLC”, the “purity (crude or final not stated)” value is 81.9%.

As for “Butyryl-[dC][dQ][dI][dW][dK][dC]-NH2 (disulfide 1-6; SMILES CCCC(=O)N[C@@H]1CSSC[C@H](C(N)=O)NC(=O)[C@@H](CCCCN)NC(=O)[C@@H](Cc2c[nH]c3ccccc23)NC(=O)[C@@H]([C@H](C)CC)NC(=O)[C@@H](CCC(N)=O)NC1=O)”, the “purity (crude or final not stated)” value (analytical HPLC) turned out to be 95.5%.

With “Butyryl-[dC][dQ][dV][dW][dK][dC]-NH2 (disulfide 1-6; SMILES CCCC(=O)N[C@@H]1CSSC[C@H](C(N)=O)NC(=O)[C@@H](CCCCN)NC(=O)[C@@H](Cc2c[nH]c3ccccc23)NC(=O)[C@@H](C(C)C)NC(=O)[C@@H](CCC(N)=O)NC1=O)”, the “purity (crude or final not stated)” value (analytical HPLC) was 93%.

For the substance “Ac-CLDPKQKW[Ac6c]QC-NH2 (disulfide 1-11; SMILES CC(=O)N[C@H]1CSSC[C@@H](C(N)=O)NC(=O)[C@H](CCC(N)=O)NC(=O)C2(CCCCC2)NC(=O)[C@H](Cc2c[nH]c3ccccc23)NC(=O)[C@H](CCCCN)NC(=O)[C@H](CCC(N)=O)NC(=O)[C@H](CCCCN)NC(=O)[C@@H]2CCCN2C(=O)[C@H](CC(=O)O)NC(=O)[C@H](CC(C)C)NC1=O)”, the “purity (crude or final not stated)” value (analytical HPLC) came to 95.2%.

“KWIQ[Dab]-NH2 (linker N-5 via Glutaryl; SMILES CC[C@H](C)[C@@H]1NC(=O)[C@H](Cc2c[nH]c3ccccc23)NC(=O)[C@H](CCCCN)NC(=O)CCCC(=O)NCC[C@@H](C(N)=O)NC(=O)[C@H](CCC(N)=O)NC1=O)”: where the note is “analytical HPLC”, the “purity (crude or final not stated)” value amounted to 96.6%.

On to “H-[dC][dQ][dI][dW][dK][dC]-NH2 (disulfide 1-6; SMILES CC[C@@H](C)[C@H]1NC(=O)[C@@H](CCC(N)=O)NC(=O)[C@H](N)CSSC[C@H](C(N)=O)NC(=O)[C@@H](CCCCN)NC(=O)[C@@H](Cc2c[nH]c3ccccc23)NC1=O)”, for which the “purity (crude or final not stated)” value (analytical HPLC) came out at 99%.

“Ac-KCLDPKQKWIQC-NH2 (disulfide 2-12; SMILES CC[C@H](C)[C@@H]1NC(=O)[C@H](Cc2c[nH]c3ccccc23)NC(=O)[C@H](CCCCN)NC(=O)[C@H](CCC(N)=O)NC(=O)[C@H](CCCCN)NC(=O)[C@@H]2CCCN2C(=O)[C@H](CC(=O)O)NC(=O)[C@H](CC(C)C)NC(=O)[C@@H](NC(=O)[C@H](CCCCN)NC(C)=O)CSSC[C@@H](C(N)=O)NC(=O)[C@H](CCC(N)=O)NC1=O)”: under “analytical HPLC”, the “purity (crude or final not stated)” value came out at 94%.

As to “c(D-Cys-D-Gln-D-Ile-D-Trp-D-Lys-D-Gln-D-Lys-D-Pro-D-Asp(D-Ala-OH)-D-Leu-D-Cys)-NH2”, the “purity (crude or final not stated)” value (analytical HPLC) is 99%.
